These results are taken from PMC7221892, “In Vitro and in Vivo Activity of mTOR Kinase and PI3K Inhibitors Against Leishmania donovani and Trypanosoma brucei” (Molecules, 2020).

SMILES strings stand for the structures.

The data set can be described thus: Host cell cytotoxicity (CC50) in infected THP-1 cells, dose-dilution assay. The conditions noted are these: human. How it is done: PMA-treated THP-1 human monocytic cells were seeded at 0.8 × 10^4 cells per well in a 384-well culture plate (Greiner Bio-One, Kremsmünster, Austria) in RPMI-1640 complete medium supplemented with 10% FBS. After 48 h of incubation at 37 °C in the presence of 5% CO2, the promastigotes of L. donovani that were incubated with lectin for 30 min at 28 °C were added to the cells at a parasite to cell ratio of 20:1. […] The negative control consisted of THP-1 infected with the parasite with only 0.5% DMSO. After 72 h, the cells that were infected and treated with the drug were washed with serum-free RPMI-1640 medium. The cells and parasites were stained using 5 μM DRAQ5 and 4% PFA. The images were acquired based on reading using an Operetta® automated microscope (PerkinElmer, Inc., Waltham, MA 02451 USA). They were further analyzed using Columbus^TM (PerkinElmer, Inc. Waltham, MA, USA) software to quantify parasite numbers, host cell numbers, and infection ratios. In brief, large-sized nucleus of host cells was first detected using Draq-5 (Thermo Fisher, Rockford, IL, USA) signal and the host cell boundary masking was performed using the low-intensity signals from cytosols (additional feature of Draq-5). […]
All of the half maximal effective concentrations (EC50) and the half maximal cytotoxic concentrations (CC50) values were calculated using two independent experiments. […]

Usually CC50 stands for the concentration at which the toxic effect on the cells reaches its halfway point. For `CC(C)n1nc(-c2cc3cc(O)ccc3[nH]2)c2c(N)ncnc21` [Torkinib], the midpoint of cytotoxicity, the CC50 at 72 h, lay at 33.4 ± 1.4 µM.
